# Assay results from the supplement of paper PMC3334620.
# Over roughly 33,000 sequences, “E-score (-0.5 to 0.5)” has its median near -0.0034; the highest 2% begin near 0.25. The list shows a part of the results.
# Molecular target: T1, Yap3 (UniProt P38749)
# T1 sequence: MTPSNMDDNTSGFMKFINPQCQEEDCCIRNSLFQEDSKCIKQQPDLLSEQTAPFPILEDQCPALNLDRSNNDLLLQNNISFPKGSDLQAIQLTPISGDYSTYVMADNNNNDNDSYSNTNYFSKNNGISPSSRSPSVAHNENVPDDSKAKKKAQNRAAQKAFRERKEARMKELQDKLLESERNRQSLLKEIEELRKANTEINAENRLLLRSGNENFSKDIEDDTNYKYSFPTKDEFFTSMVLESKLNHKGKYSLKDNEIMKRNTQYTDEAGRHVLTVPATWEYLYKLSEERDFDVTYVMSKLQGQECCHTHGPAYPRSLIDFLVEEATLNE
# Experiment: PBM E-score (8-mer binding enrichment) (E-score (-0.5 to 0.5)); higher = stronger / more preferred TF binding
# Conditions: protein concentration: 100 nM; construct: GST-full length
# Experimental: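 Universal 'all 10-mer' protein binding microarrays (Agilent AMADID 015681) probed with GST-tagged S. cerevisiae TFs (full-length or DBD) made by in vitro transcription/translation (PURExpress), about 100-200 nM. Bound TF was detected with fluorescent anti-GST. Each ungapped 8-mer (which stands for itself and its reverse complement) is scored by the PBM enrichment score (E-score), a modified Wilcoxon-Mann-Whitney statistic from -0.5 to +0.5, computed with the Universal PBM Analysis Suite. Scale: above 0.35 generally sequence-specific binding.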
row,Sequence,PBM E-score
1,GCATCAGA,0.136
2,AACGTCTT,0.0101
3,GTACCCTA,-0.0277
4,GTCTGCCA,-0.174
5,AATCTGCC,-0.0324
6,ACGAAACA,0.0846
7,GTCTCCGA,-0.103
8,ACTGGCCA,-0.0318
9,AAATTAAA,0.319
10,AATTCTCT,-0.0515
11,GTCACAAA,0.00773
12,CCCCGGAG,-0.132
13,CGCTGCAA,0.0789
14,AAGGCGCT,-0.0833
15,GCCGCTCC,-0.304
16,ACACCTGT,-0.0238
17,CAGTTTGA,0.013
18,CCCAACGG,-0.105
19,AGTTCGCA,0.0174
20,ATCGCGAC,0.209
21,AACCGCAT,0.135
22,GTGTCATA,0.113
23,CGAAGGCG,-0.0306
24,ATCTAACC,-0.00209
25,AGAGGACA,-0.133

row,Sequence,PBM E-score
1,CGAGCTAG,-0.0107
2,ATGACAAA,0.307
3,AATTGGCT,0.251
4,ACTAAACT,0.0886
5,CGTTTAAC,0.178
6,ACCCGTTC,0.0741
7,CCTGAGAG,-0.184
8,AAGCCACC,-0.235
9,ATAGTTAA,0.114
10,CCGAGCCC,-0.375
11,CGCCGGTC,-0.178
12,CGAAGCGC,-0.123
13,TACTCTCA,0.079
14,GATTGTGA,0.0832
15,GACAGCTC,-0.371
16,GTTGAGCA,0.0274
17,GAAAGGAC,-0.0281
18,GCGGCAGA,-0.17
19,CGAAAGGC,-0.119
20,GACAGGCC,0.0143
21,CCCTACCA,-0.0549
22,TGGTCTAA,-0.063
23,CTACTGTA,-0.0229
24,AAAATTGA,0.194
25,AGTTTGCC,0.175

# For reference, part of the list above:
row,Sequence,PBM E-score
1,CGAGCTAG,-0.0107
2,ATGACAAA,0.307
3,AATTGGCT,0.251
4,ACTAAACT,0.0886
5,CGTTTAAC,0.178

# (listing goes on)

row,Sequence,PBM E-score
1,GCAGAGGA,-0.0322
2,CGTTCAAG,-0.0509
3,GGGCTGGA,-0.199
4,ACAGTGGC,0.0492
5,TACCTCGA,0.0149
6,CAGTAACG,-0.0558
7,AACACAGT,0.102
8,TCCCATAA,0.00173
9,AGGTGCTC,-0.335
10,CCACTTAA,-0.071
11,CCGCTTCC,-0.111
12,ACAGTTGC,0.042
13,ATTTACCA,0.0912
14,AGCCCCAC,-0.248
15,AAACTCGC,-0.0355
16,CATCTACG,-0.0208
17,AAGAGATC,-0.102
18,CCGGTGAA,-0.0053
19,TATGCCAA,0.0551
20,AGGTGGCA,-0.0434
21,CGGAGCTA,-0.142
22,ATAAATCA,0.207
23,AGTGGAGC,-0.0528
24,GCGCCGAC,-0.208
25,CCCTGCAC,-0.185

row,Sequence,PBM E-score
1,GCATTAGA,0.0147
2,CTACGGAA,0.068
3,AACTTGAC,0.107
4,GGATACCA,0.0865
5,GAGAGTAC,-0.0939
6,GATACCGA,-0.128
7,AAAGCCTC,-0.124
8,AGGGAGTC,-0.235
9,AAGGTCGT,0.0935
10,ACTTACTG,0.0976
11,CCGTAGCC,-0.146
12,ACCGACCG,-0.0309
13,AGTTCTAC,-0.229
14,CAATTGAC,0.084
15,CTCGAACA,-0.0158
16,CCATTGCA,0.0659
17,GAGACTCA,-0.04
18,ATTTGGCA,-0.0234
19,CCACCGCC,-0.193
20,GGCAACCA,-0.0656
21,AGATGAAG,-0.181
22,GCCTGTTA,-0.0396
23,AGGGGCTG,-0.0704
24,ATTTCTTC,0.106
25,ACTCATGG,-0.0507

row,Sequence,PBM E-score
1,CTCCACAC,-0.00615
2,ATGGTTAG,0.0841
3,GCAAATCC,0.156
4,AGCATCCA,-0.103
5,CGGTAATC,-0.0393
6,CTATCCTA,-0.0511
7,GCCGCCAC,-0.286
8,GGGGAGCA,-0.3
9,CTGCAAAG,-0.0978
10,AACCGGAG,-0.134
11,CCAGTTAG,0.0535
12,CTGCCCAG,-0.453
13,CTGCTTAA,-0.0735
14,CGGCAACG,-0.19
15,GGCTAGAC,-0.225
16,CAGCTAAG,-0.233
17,ACAACGTG,-0.0198
18,CTGAAGTA,-0.047
19,AGCGACAA,0.0277
20,AAGGTTTG,0.0653
21,GTTTGGCA,-0.136
22,CTTCTGCC,-0.0432
23,AAGCTTGT,0.0865
24,CGAGCTTA,0.00548
25,CCTGATCC,-0.117

row,Sequence,PBM E-score
1,GCCGTCAA,-0.057
2,AAATACCC,-0.062
3,CCTATCTC,-0.0285
4,GACGGCTC,-0.125
5,CTGGAGCA,-0.00117
6,TATGGCAA,0.0667
7,ATGGAGGC,-0.168
8,CATACAGA,0.118
9,ATGCCTGC,-0.121
10,CTACGTAA,0.135
11,AAGTTCGA,0.168
12,CTAGTGCA,0.103
13,AGTCAACT,-0.116
14,GCCGAAAA,0.112
15,CTGTACGC,-0.0739
16,CAGTATTC,0.133
17,CACAATAA,0.0648
18,CCAAGCTC,-0.0892
19,CCTGACAG,-0.0186
20,GCCGCACC,-0.164
21,TGTGCCAA,0.116
22,GCCAAACA,0.0153
23,ACAAATTC,0.17
24,CAATCGGC,-0.0271
25,CTATCGAC,-0.0599

row,Sequence,PBM E-score
1,AATCGGGA,0.0297
2,CTCCCGTC,0.0163
3,ACAGTACT,-0.0583
4,AGGGCTCA,-0.194
5,GCTCGGCC,-0.322
6,GCAAAGCA,-0.0867
7,TCTTTACA,0.231
8,ACAGCCTC,-0.155
9,CATTTTAG,0.121
10,CGCTCCAC,-0.128
11,ATTCGAAG,0.0799
12,TAGAGCAA,-0.0378
13,AGCTAAAA,0.0436
14,ATGGCATG,0.0696
15,ATAGCGAT,0.0786
16,GGTACTCA,0.00909
17,GACCCTAC,-0.176
18,GGTCGAAA,-0.188
19,CGCGGTAA,0.115
20,AGGGCCTC,-0.277
21,AAGGCTGT,-0.162
22,GGTTCGTA,0.116
